The data set has as its target Myc DNA-binding domain (synthetic, S-arylated) Y402C, then Cys402 S-arylated with Pd-2 to a Tyr mimic (UniProt P01106). Nature of the data set: EMSA. The settings on record: Myc alone, 1 uM DNA, 0, 4, 8 uM protein; EMSA: 10 mM MES, 150 mM KCl, 1 mM MgCl2, 10% glycerol, room temperature 1 h, 10% TBE gel, pH not given. Background: In EMSA bound probe runs differently from free probe, usually more slowly.

Amino acid sequences for entries named in this document (tags omitted). Residues count along the entry.
UniProt P01106, 369-449, stated change not applied: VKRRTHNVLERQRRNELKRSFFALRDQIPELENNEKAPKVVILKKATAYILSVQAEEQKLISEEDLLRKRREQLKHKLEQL

Negatives hold for the conditions tested.

One sequence from publication PMC10324392 can be followed below.

Turning to “CCGGCTGACACGTGGTATTAAT (double strand) [E-box DNA probe (22 bp)]”, the binding result is on record as “no binding”.
